The whole screen tested about 360,000 compounds, of which about 9,100 (2.5%) were called active. Inconclusive means that the source gave no clear call. Such entries were picked first, then a sample of the others. Cut-off read from the data, not from the text of the source: active = max response below about -50%; inconclusive = no clear call, values can overlap the other calls; inactive = above that. A structure can be active in one record and inactive in another.
The compounds below were run against D(3) dopamine receptor (Homo sapiens) (UniProt P35462) (assay: qHTS of D3 Dopamine Receptor Antagonist: qHTS). Conditions: D3R cells, DiscoveRx beta-arrestin luminescence, antagonist mode; hits give low values.
Outline: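 Cells plated overnight at 1500 cells/well, then exposed to library compounds with dopamine controls for 90 minutes at 37 degrees C. DiscoveRx reagent added for 30–60 minutes at room temperature; luminescence read, quantitative HTS format.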
% is set by controls: 0 for no effect and ±100 for the full control effect.

The chains behind the UniProt entries cited, without tags or fusion partners.
UniProt P35462, whole entry, looked up: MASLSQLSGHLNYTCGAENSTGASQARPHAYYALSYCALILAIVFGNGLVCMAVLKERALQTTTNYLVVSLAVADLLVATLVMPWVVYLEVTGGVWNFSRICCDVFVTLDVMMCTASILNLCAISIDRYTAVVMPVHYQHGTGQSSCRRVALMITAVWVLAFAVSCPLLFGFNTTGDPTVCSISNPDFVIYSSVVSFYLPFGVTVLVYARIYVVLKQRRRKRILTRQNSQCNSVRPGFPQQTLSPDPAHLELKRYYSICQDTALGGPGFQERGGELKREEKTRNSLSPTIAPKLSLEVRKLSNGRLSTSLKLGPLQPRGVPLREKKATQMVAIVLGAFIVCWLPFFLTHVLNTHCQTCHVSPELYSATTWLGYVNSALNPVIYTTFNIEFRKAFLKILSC

Max response, negative = inhibition, inactive:
Cc1ccc(S(=O)(=O)N(Cc2cccc(C(F)(F)F)c2)C(=O)N2CCN(C)CC2)cc1 7.1%
Cc1nc(Cl)nc(N(C)c2ccccc2)c1[N+](=O)[O-] -17.6%
Cc1ccccc1-c1cc2nc(Nc3ccc(F)cc3)n(C)c(=O)c2s1 16.5%
Cc1cccc(COCC(Cc2ccccc2)N2CCN(C(=O)c3ccc(C(F)(F)F)cc3)CCC2=O)c1 (stereo not drawn) 19.8%
Cc1cc2nc(-c3ccc(SCC(=O)N4CCOCC4)nc3)[nH]c2cc1C 34.4%
S=C(NCc1ccccc1)N1CCCCC1 -25.1%
CCCn1c(CN2CCN(C(=O)OCC)CC2)nc2cc(NC(=O)C(C)C)ccc21 -2.74%
O=[N+]([O-])c1cc(S(=O)(=O)N2CCCCCC2)ccc1F -9.07%
C#CC[N+](C)(C)CCCCCCCCC -3.2%
Cc1cccc(C)c1-n1nnnc1C1c2ccccc2C(=O)N1CCOc1ccccc1 (stereo not drawn) 7.7%
CCn1nc(C(=O)OC(C(=O)c2c[nH]c3ccccc23)c2ccccc2)c2ccccc2c1=O (stereo not drawn) 1.1%
Cc1cccc(/C=C2/C(=O)/C(=C/c3ccccc3C)C3CCC2N3C)c1 (stereo not drawn) 0%

3 records picked at random from the list so far, as already listed:
Max response, negative = inhibition, inactive:
Cc1cccc(/C=C2/C(=O)/C(=C/c3ccccc3C)C3CCC2N3C)c1 (stereo not drawn) 0%
Cc1nc(Cl)nc(N(C)c2ccccc2)c1[N+](=O)[O-] -17.6%
Cc1ccccc1-c1cc2nc(Nc3ccc(F)cc3)n(C)c(=O)c2s1 16.5%

Next part:

Max response, negative = inhibition, active:
CCC(CN(C)C)Oc1cc(NCc2ccccc2)c2ncn(C(C)C)c2c1 (stereo not drawn) -55%
CCOC(=O)C1(CCc2ccccc2)CCN(Cc2ccc(C(=O)OC)cc2)CC1 -69.5%
O=C(Nc1ccc(Cl)c(C(F)(F)F)c1)NC1CC2CCCC(C1)N2Cc1ccccc1 (stereo not drawn) -83.6%
Cc1ccc(S(=O)(=O)NC2=C(N3CCN(c4ccccc4F)CC3)C(=O)c3ccccc3C2=O)cc1 -67.3%
Cc1cccc(C(=O)NCC2CCCO2)c1 (stereo not drawn) -53.7%
O=C(NCCN1CCN(c2ccccc2)CC1)C1CCCN(S(=O)(=O)c2cnc[nH]2)C1 (stereo not drawn) -63.3%
COc1ccc(-n2cc(CNCCc3cscn3)c(-c3ccccc3Cl)n2)cc1 -101%

Max response, negative = inhibition, inconclusive:
Cc1cccc(NC(=O)c2cccc([N+](=O)[O-])c2O)c1C -37.9%
CCOc1ccc2nc(SC3CC(=O)N(c4ccccc4)C3=O)sc2c1 (stereo not drawn) -35.7%
CCC1=NN(C(=O)c2ccc([N+](=O)[O-])cc2)C(O)(c2ccccc2)C1 (stereo not drawn) -43.2%
COc1ccc(C(=O)/C=C/c2ccccc2)c(O)c1 -45.4%
CC(C)(C)NC(=O)C(c1ccc(O)cc1)N(C(=O)Cn1nnc(-c2ccc(F)cc2)n1)c1ccccc1F (stereo not drawn) -31.6%
Cc1cccc(Cn2c(=O)n(-c3ccc(CC(=O)NCc4ccco4)cc3)c(=O)c3sccc32)c1 -43.1%
CCCCNC(=O)C1(C)CCN1Cc1ccc(C#N)cc1 (stereo not drawn) -47.1%
CCCCCOc1ccc(N2C(=O)CC(N(O)c3ccccc3)C2=O)cc1 (stereo not drawn) -42.5%
O=C(CCCCCN1C(=O)c2cccc3cccc(c23)C1=O)NCCCO -31.6%
O=C(N/N=C/c1c[nH]c2ccccc12)c1cccc([N+](=O)[O-])c1 -33.3%
COC(=O)C1=NN(C(=O)c2ccc(Cl)cc2)C(O)(c2ccccc2)C1 (stereo not drawn) -40.9%
O=S1(=O)N[C@@H](Cc2ccccc2)COc2cccc(N3CCN(Cc4ccccc4F)CC3)c21 -40.2%
COc1ccccc1C(=O)N1CCN(C2CCN(Cc3ccccc3)CC2)CC1 -34.4%
CCOc1ccc(Br)cc1S(=O)(=O)Nc1cccnc1 -31.1%
COc1cccc(N2CC(O)=C(c3nc4ccccc4c(=O)[nH]3)C2=N)c1 -36%
O=C1c2[nH]nc(-c3ccccc3O)c2C(c2ccccc2)N1Cc1ccco1 (stereo not drawn) -33.2%
CCCCCc1ccc2cc(C#N)ccc2n1 -31.1%
CC1(c2ccccc2)NC(=O)N(CC(=O)NCc2cccc(Cl)c2)C1=O (stereo not drawn) -35.8%
COC(=O)c1ccc(C23CC4(C2)[C@H](CN(CC2CCCCC2)[C@@H]4c2ccccc2)C3c2ccc(Cl)nc2)cc1 (stereo partly drawn) -42.6%
Oc1ccc(N=Cc2ccc(-c3cccs3)s2)cc1 -31.8%
O=Nc1c(O)[nH]c2c(F)cccc12 -34.3%
CC(C)CN=C(NS(=O)(=O)c1ccccc1)C(Cl)(Cl)Cl -31.2%
Nc1cc(-c2ccc(Cl)cc2)nn1S(=O)(=O)c1cccc2nsnc12 -48.3%
O=C(CNCCC1=CCCCC1)Nc1ccccc1N1CCCCC1 -36%

Source: PubChem BioAssay AID652054 (National Center for Advancing Translational Sciences (NCATS), 2013)
